The results in this text go back to PMC4643928.

These are yes or no findings as the source states them, for the method shown.

This test has as its target C-terminal domain of E. coli GyrA (residues 531-875) with the C-terminal acidic tail (E. coli) (UniProt P0AES4). Description: SEC; analytical SEC, Superdex 200 5/150 GL, 10 ul sample, 0.5 ml/min, 300 mM NaCl, 20 mM Tris/HCl pH 8.0; mass from elution volume against a calibration curve; both purified. Background: In gel filtration, larger molecules generally elute earlier.

In the case of “C-terminal domain of E. coli GyrA (residues 531-875) with the C-terminal acidic tail (from UniProt P0AES4 531-875) (domain or fragment)”, the binding entry is given as “no binding”.
